Results reported in paper PMC6522492.
No constants are given. Whether binding was seen depends on the method and setting. In cells and extracts the contact can be indirect. Some results given as binding are weak or reduced against the parent protein; the word gives no strength.

Amino acid sequences for entries named in this document (tags omitted).
UniProt Q8ILA2: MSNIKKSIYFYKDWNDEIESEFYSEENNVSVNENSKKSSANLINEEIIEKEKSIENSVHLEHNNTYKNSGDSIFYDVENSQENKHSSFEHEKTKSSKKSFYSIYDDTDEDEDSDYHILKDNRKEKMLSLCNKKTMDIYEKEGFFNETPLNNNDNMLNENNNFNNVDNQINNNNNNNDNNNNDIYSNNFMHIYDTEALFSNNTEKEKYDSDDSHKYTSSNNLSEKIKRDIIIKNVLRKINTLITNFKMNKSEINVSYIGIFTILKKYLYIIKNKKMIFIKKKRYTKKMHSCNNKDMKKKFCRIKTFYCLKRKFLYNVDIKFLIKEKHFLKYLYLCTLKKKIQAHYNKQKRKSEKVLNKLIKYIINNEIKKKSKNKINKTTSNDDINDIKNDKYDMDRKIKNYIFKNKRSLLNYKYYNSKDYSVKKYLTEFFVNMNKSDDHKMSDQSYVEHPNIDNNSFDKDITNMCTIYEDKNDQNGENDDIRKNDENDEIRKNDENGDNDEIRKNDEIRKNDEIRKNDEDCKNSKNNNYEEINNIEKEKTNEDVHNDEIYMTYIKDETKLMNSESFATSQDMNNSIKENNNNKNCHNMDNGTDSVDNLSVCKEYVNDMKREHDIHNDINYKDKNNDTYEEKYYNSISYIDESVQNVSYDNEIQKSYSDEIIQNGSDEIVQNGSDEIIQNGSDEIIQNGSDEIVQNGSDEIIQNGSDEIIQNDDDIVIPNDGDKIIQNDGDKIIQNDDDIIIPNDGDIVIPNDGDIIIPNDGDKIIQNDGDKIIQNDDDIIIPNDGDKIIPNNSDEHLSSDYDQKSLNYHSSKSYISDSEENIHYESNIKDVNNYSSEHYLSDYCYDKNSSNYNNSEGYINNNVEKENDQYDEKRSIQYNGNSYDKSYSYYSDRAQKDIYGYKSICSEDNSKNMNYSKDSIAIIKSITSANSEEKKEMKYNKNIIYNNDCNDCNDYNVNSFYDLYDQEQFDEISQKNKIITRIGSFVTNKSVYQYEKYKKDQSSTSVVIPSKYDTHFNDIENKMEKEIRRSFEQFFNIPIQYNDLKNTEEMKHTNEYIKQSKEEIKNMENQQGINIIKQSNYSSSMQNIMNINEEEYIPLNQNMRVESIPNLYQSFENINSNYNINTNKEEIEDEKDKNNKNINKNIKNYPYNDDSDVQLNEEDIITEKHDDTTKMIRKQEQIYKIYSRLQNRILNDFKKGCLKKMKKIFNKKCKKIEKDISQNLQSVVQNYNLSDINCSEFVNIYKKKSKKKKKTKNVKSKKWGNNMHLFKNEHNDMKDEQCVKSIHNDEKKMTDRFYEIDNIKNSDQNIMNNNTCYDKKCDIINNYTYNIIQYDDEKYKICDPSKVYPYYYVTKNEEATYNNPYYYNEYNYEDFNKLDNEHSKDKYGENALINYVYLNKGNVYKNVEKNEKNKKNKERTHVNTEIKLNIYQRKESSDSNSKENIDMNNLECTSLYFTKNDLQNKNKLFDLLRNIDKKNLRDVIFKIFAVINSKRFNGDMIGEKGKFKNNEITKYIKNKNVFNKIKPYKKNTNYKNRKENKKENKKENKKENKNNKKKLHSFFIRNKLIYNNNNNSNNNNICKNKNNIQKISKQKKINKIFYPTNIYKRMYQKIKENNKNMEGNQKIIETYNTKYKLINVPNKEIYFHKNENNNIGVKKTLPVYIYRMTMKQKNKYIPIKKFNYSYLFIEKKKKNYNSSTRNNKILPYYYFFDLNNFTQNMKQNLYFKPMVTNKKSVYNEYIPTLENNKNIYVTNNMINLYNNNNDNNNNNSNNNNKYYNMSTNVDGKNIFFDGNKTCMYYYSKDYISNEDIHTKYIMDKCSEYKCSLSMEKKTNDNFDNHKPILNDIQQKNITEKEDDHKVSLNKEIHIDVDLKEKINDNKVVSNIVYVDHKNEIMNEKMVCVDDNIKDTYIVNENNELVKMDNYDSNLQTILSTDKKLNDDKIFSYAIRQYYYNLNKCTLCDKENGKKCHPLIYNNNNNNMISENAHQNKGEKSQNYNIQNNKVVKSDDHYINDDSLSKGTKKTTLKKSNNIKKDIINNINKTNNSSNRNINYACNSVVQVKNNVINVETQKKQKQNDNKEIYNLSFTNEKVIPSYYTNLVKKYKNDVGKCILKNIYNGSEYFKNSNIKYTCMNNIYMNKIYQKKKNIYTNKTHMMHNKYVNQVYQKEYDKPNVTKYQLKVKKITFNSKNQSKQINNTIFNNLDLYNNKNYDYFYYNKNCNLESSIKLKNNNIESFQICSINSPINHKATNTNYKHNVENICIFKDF
UniProt Q9U0K8: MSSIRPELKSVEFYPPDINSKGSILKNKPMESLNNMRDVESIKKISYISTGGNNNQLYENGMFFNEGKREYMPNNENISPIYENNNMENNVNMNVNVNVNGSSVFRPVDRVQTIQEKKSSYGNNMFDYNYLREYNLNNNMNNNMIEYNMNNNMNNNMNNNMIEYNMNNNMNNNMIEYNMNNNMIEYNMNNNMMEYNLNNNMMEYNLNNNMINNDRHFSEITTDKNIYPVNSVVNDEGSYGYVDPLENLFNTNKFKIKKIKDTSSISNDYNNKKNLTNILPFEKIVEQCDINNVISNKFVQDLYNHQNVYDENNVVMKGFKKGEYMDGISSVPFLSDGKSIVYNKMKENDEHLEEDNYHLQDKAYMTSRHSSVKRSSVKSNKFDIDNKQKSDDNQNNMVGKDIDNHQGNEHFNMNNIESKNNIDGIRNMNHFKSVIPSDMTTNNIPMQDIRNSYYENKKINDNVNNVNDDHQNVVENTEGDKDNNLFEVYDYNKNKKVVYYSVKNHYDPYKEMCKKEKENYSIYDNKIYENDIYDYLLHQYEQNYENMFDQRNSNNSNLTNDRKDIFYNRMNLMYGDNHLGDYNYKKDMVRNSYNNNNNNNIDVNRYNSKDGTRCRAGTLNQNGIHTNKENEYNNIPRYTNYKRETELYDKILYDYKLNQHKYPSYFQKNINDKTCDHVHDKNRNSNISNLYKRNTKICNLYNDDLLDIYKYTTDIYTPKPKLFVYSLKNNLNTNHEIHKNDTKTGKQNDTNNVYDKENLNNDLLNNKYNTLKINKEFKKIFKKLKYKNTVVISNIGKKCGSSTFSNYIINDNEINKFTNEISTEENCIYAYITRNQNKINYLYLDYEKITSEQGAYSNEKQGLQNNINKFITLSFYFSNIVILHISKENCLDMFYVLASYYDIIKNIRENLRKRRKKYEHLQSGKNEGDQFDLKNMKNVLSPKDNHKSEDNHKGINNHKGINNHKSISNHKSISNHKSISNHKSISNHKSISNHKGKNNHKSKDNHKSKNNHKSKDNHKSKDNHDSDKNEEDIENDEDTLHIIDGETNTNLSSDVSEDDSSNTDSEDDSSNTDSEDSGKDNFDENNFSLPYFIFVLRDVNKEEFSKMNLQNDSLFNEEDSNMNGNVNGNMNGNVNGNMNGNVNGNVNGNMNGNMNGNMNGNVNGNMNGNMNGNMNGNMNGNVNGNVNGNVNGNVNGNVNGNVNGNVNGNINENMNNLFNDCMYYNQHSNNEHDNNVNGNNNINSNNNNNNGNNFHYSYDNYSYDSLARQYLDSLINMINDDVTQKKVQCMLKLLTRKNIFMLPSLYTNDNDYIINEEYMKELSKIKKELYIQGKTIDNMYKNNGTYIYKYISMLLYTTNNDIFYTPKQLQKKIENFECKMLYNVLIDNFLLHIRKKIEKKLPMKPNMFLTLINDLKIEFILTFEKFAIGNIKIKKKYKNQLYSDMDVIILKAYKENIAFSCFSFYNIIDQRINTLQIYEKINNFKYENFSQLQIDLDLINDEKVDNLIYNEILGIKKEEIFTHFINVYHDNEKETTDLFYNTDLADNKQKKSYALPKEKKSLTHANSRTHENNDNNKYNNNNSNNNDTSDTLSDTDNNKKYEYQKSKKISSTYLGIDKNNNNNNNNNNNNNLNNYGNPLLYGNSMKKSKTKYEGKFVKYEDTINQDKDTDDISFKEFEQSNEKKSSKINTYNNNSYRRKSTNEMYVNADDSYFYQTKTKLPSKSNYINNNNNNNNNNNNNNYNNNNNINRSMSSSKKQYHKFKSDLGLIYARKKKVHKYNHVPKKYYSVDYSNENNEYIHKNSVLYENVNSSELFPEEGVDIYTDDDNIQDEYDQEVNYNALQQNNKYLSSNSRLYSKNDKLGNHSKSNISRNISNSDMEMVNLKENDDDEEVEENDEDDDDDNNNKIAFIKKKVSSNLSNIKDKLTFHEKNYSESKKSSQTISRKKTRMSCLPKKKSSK

Molecular target: P. falciparum basal complex protein 1 (PfBCP1), PF3D7_1436200 (Plasmodium falciparum (endogenous in 3D7 schizonts)) (UniProt Q8ILA2)
Assay: co-IP; RIPA lysate of PfCINCH^smV5-Tet schizonts, pre-cleared, PfBCP1 antisera or pre-immune sera 1 h at 4 °C, Protein A beads, three RIPA washes; eluate immunoblotted with anti-V5

- binding: binds
Substance: P. falciparum coordinator of nascent cell detachment (PfCINCH), PF3D7_0407800, with the spaghetti monster V5 tag at its carboxy terminus (from UniProt Q9U0K8 1-1960)
